In this assay the target is T1, GFP-tagged SNX32 stably expressed in SHSY5Y cells (UniProt Q86XE0).
T1 sequence: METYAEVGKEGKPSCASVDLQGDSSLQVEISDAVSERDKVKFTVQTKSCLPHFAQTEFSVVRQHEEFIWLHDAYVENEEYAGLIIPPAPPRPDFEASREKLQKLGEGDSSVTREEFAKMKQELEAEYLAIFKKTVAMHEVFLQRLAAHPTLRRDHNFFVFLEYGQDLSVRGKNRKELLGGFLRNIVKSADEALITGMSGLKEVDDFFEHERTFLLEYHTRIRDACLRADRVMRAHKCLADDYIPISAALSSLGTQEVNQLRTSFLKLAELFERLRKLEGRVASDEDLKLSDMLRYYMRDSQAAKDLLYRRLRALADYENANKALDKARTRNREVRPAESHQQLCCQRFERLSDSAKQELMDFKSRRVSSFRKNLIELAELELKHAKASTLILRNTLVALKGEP
As to the kind of experiment: affinity purification with mass spectrometry; SILAC-based differential proteomics: SH-SY-5Y cells stably expressing GFP, GFP-SNX32 or GFP-SNX32 F131D, lysed in 50 mM Tris-HCl, 0.5% NP-40, GFP trap (ChromoTek), LC-MS/MS on an Orbitrap Velos.

By UniProt entry, the sequences of proteins in these tests, tags left out. Residues count along the entry.
UniProt P11717, residues 41-2491: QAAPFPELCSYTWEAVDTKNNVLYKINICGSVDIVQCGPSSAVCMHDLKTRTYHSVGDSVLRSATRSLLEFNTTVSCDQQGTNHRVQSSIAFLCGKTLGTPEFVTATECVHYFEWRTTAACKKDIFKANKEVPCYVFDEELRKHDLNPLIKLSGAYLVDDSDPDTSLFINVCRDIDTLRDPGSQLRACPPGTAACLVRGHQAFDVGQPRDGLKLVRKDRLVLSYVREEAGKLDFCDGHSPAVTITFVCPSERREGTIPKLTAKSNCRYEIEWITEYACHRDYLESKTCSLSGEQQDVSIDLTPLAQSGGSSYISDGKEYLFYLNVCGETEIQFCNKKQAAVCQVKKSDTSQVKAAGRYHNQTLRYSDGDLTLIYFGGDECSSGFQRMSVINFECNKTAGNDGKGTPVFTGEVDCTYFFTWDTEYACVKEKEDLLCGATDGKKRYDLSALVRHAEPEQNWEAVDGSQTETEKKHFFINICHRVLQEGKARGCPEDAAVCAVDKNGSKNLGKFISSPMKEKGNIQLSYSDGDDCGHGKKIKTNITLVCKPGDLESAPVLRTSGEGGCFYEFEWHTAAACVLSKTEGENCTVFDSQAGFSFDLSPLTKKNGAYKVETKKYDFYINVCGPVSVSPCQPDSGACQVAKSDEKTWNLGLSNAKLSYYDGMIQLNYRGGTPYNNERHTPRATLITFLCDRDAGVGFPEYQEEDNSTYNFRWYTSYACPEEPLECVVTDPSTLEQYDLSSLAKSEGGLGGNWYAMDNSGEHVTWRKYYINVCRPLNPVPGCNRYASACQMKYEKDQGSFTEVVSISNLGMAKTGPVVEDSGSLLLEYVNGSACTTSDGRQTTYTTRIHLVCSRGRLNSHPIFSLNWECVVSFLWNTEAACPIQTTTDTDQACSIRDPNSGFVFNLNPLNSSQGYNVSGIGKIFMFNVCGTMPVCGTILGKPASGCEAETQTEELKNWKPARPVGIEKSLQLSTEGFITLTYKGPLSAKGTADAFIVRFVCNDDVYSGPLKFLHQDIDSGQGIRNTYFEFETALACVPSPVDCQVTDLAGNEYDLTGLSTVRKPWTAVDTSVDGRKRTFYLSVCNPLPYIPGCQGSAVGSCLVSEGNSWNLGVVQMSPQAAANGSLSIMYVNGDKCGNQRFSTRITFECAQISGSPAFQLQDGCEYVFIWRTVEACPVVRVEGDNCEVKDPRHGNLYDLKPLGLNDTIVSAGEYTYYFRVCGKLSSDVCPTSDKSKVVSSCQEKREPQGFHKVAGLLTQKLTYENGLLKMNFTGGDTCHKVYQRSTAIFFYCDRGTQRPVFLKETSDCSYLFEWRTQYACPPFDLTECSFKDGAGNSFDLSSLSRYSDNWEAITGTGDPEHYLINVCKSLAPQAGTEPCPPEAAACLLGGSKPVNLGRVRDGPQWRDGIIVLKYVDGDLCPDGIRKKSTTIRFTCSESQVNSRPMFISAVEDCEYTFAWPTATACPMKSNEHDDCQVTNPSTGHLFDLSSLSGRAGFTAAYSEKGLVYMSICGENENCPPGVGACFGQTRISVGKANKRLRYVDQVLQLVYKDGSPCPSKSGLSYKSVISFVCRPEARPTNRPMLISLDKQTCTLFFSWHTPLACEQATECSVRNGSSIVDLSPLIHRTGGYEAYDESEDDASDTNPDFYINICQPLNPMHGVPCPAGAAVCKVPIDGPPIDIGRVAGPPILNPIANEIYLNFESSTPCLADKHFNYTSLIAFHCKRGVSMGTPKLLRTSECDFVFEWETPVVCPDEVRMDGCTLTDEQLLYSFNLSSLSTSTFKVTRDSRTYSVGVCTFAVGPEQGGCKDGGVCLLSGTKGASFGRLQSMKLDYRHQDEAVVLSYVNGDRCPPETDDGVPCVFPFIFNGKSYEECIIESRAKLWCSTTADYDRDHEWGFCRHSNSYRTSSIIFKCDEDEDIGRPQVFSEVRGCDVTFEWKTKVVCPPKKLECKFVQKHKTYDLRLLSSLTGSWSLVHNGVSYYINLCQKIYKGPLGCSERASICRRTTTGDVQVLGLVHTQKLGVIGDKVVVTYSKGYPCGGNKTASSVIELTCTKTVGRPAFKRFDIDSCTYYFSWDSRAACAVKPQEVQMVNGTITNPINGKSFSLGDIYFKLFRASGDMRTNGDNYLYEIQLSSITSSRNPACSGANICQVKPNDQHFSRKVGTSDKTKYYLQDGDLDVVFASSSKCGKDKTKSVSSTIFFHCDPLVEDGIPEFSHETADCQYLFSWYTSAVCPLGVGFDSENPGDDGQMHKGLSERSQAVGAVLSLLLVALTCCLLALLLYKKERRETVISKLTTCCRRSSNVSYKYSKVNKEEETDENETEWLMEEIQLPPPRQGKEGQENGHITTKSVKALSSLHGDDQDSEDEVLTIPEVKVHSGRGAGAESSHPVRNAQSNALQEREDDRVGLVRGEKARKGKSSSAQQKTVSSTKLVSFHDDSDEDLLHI

Results are given in words; binding and its absence hold for the method and conditions named. In cells and extracts the contact can be indirect. Here binding means that the protein was enriched with, or labelled near, the bait; the list need not be complete. Where a sequence is shown, tags or fusion partners need not be part of it.

For the substance “Basigin (BSG) (from UniProt P35613-2) (receptor)”, the binding result was “binds”.
The result for “Cation-Independent Mannose-6-Phosphate Receptor (CIMPR) (from UniProt P11717 41-2491)” reads “binds”.

These data come from article PMC10219652, “Insights into cargo sorting by SNX32 and its role in neurite outgrowth” (eLife, 2023).
